Results reported in US20260035475A1.
Results are given in words; binding and its absence hold for the method and conditions named. Some results given as binding are weak or reduced against the parent protein; the word gives no strength.

Protein sequences, listed by entry. Tags and fused reporters are not part of them. Residues count along the entry.
UniProt P02787, residues 20-698: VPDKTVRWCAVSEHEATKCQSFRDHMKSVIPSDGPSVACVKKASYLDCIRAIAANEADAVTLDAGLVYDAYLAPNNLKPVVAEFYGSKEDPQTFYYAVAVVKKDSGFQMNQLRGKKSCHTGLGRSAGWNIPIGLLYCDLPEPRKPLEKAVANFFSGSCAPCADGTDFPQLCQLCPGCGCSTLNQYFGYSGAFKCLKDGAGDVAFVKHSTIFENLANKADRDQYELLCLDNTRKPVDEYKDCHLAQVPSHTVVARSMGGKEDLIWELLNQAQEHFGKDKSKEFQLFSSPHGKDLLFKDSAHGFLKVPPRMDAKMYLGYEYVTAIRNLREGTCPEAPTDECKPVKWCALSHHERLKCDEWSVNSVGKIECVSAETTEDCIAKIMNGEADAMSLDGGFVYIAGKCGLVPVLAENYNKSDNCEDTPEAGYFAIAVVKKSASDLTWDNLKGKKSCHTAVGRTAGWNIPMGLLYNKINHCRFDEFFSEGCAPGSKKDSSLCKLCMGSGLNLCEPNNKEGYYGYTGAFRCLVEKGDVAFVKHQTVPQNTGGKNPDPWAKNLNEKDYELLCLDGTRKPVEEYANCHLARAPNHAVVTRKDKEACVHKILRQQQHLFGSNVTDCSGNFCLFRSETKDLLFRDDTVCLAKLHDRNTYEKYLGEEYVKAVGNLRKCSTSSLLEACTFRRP

Biological target: cynomolgus TfR1 (cTfR1), recombinant, construct not stated (cynomolgus)
Assay: BLI, transferrin on streptavidin sensors captures TfR1

binding: binds
Substance: human holo-transferrin (from UniProt P02787 20-698) (ligand)
